Among all 340,000 compounds or so, about 6,200 (1.8%) were called active. Inconclusive results, whose numbers are uncertain, are shown with a selection of clear calls. The call rests on the fitted dose curve; in most records, active means well fitted activation curve with a large enough effect; inconclusive means small, poorly fitted or top-dose-only effect; inactive means no such curve, though single readings can be large or run the other way. Potencies of inconclusive entries are doubtful fits and often do not repeat.
Assay: A quantitative high throughput screen for small molecules that induce DNA re-replication in SW480 colon adenocarcinoma cells. Further: nearly all actives have a fitted effect of over 55% in size.
Conditions: Hoechst DNA content imaging, 48 h; series mostly up to 46.1 µM
In short: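 Per well, 250 cells were exposed to pinned compound for 48 hr. Nuclear DNA was visualised with Hoechst (40 min, 37 C) and total object intensity recorded by fluorescence scanning.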
For `CCCCN(C(=O)c1cc(S(=O)(=O)N2CCCCCC2)ccc1OC)c1ccccc1`, the Potency was inconclusive: 5.17 µM [activator, single point].
In the case of `COc1cc(CNC2CCCC2)cc(Cl)c1OCc1ccc(F)cc1`, the Potency is reported as “inactive”.
For `COc1ccc(C(=O)N/N=C/c2cccnc2)cc1`, the Potency was “inactive”.
In the case of `CCn1c(/C=C/c2ccc([N+](=O)[O-])o2)nc2ccccc2c1=O`, the Potency is reported as inconclusive: 3.66 µM [activator, full curve].
For `N=c1c(C(=O)NCC2CCCO2)cc2c(=O)n3ccccc3nc2n1C1CCCC1` (stereo not drawn), the Potency was inconclusive: 3.66 µM [activator, partial curve, poor fit].
With `O=C(N/N=C/c1cn(Cc2ccccc2)c2ccccc12)c1ccncc1` the Potency was inconclusive: 16.4 µM [activator, single point].
With `O=c1[nH]c2cc3c(cc2cc1CN(CC1CCCO1)S(=O)(=O)c1ccc(Cl)cc1)OCCO3` (stereo not drawn) the Potency was inconclusive: 18.4 µM [activator, partial curve, poor fit].
For `COc1ccc(CN2CCC(CO)(Cc3ccccc3)CC2)cc1Cn1cccn1`, the Potency was inconclusive: 0.651 µM [activator, partial curve, poor fit].
With `Cc1ccc(N2CCN(S(=O)(=O)c3ccc4c(c3)n(C)c(=O)c(=O)n4C)CC2C)cc1` (stereo not drawn) the Potency was inconclusive: 0.461 µM [activator, full curve, poor fit].
With `COc1ccc(C2c3c(-c4ccccc4O)n[nH]c3C(=O)N2Cc2ccco2)cc1OC` (stereo not drawn) the Potency was “inactive”.
In the case of `Cc1cccc(-n2cc(C#N)c(=O)[nH]c2=O)n1`, the Potency is reported as inconclusive: 4.61 µM [activator, full curve, poor fit].
In the case of `CN(C)CCCN(C(=O)c1ccc(Cl)s1)c1nc2cc3c(cc2s1)OCO3`, the Potency is reported as inconclusive: 16.4 µM [activator, single point].
For `Cc1ccn2cc(-c3nonc3C)cc2c1`, the Potency was inconclusive: 5.17 µM [activator, single point].
In the case of `CCCCC1(C)Cc2ccccc2C(=S)N1` (stereo not drawn), the Potency is reported as inconclusive: 29.1 µM [activator, single point].
With `CCN(CC)S(=O)(=O)c1ccc(N2CCOCC2)c(NC(=O)c2ccc(OC)c([N+](=O)[O-])c2)c1` the Potency was inconclusive: 2.06 µM [activator, partial curve, poor fit].
In the case of `O=C(c1ccccc1)N(Cc1ccc(F)cc1)Cc1nc2ccccc2c(=O)[nH]1`, the Potency is reported as active: 4.11 µM.
With `Cc1cccc(N2CCN(C(=O)c3cccc(N4C(=O)C5CC=CC(C)C5C4=O)c3)CC2)c1C` (stereo not drawn) the Potency was “inactive”.
For `CCN(CC)c1ccc(NC(=O)COc2ccc(C#N)cc2)cc1S(=O)(=O)Nc1ccc(OC)cc1`, the Potency was “inactive”.
For `COc1ccc(NC2=C(NCCO)C(=O)c3ccccc3C2=O)cc1`, the Potency was active: 18.4 µM.
With `CCOC(=O)c1c(C=O)c(C)n(Cc2ccc(Cl)cc2)c1C` the Potency was “inactive”.
For `O=C(CN1CCCC1)NC12CC3CC(CC(C3)C1)C2`, the Potency was inconclusive: 16.4 µM [activator, partial curve, poor fit].
In the case of `O=C(O)COc1ccc(S(=O)(=O)N2CCCC2)cc1`, the Potency is reported as “inactive”.
For `O=C(CSc1nnc(SCc2cccc3ccccc23)s1)c1ccc2c(c1)OCO2`, the Potency was “inactive”.
With `CCCN1C(=O)c2ccccc2NC1c1ccc(O)c(OCC)c1` (stereo not drawn) the Potency was “inactive”.
For `CC1CCN(C(=S)Nc2ccc3nc4n(c(=O)c3c2)CCCCC4)CC1`, the Potency was “inactive”.
With `O=C1C(CN2CCCC2)CCCC1CN1CCCC1` (stereo not drawn) the Potency was inconclusive: 29.1 µM [activator, single point].
With `CCOC(=O)c1nc(Nc2ccc(OC)cc2)c2ccccc2n1` the Potency was inconclusive: 1.46 µM [activator, single point].
With `COc1cc(/C=C2/C(=N)N3N=C(C)SC3=NC2=O)ccc1OS(=O)(=O)c1ccc(C)cc1` the Potency was inconclusive: 29.1 µM [activator, single point].
With `C=C1C(=CC=C2CCC[C@@]3(C)[C@@H]2CC[C@H]3[C@H](C)CCCC(C)C)C[C@@H](O)C[C@@H]1O` the Potency was inconclusive: 33.5 µM [activator, single point].
In the case of `O=C(CCc1ccncc1)NC1CCCc2c1cnn2-c1ccc(F)cc1F` (stereo not drawn), the Potency is reported as inconclusive: 3.26 µM [activator, single point].
For `CCOC(=O)c1csc(NC(=O)C2=COCCO2)n1`, the Potency was inconclusive: 25.9 µM [activator, partial curve, poor fit].
In the case of `CN(Cc1cnn(C)c1)C(=O)C1CCC(=O)N(Cc2cccc(F)c2)C1` (stereo not drawn), the Potency is reported as inconclusive: 13 µM [activator, partial curve].
In the case of `CN1C(=O)OC2(C)CCc3ccccc3C12C` (stereo not drawn), the Potency is reported as “inactive”.
For `OC(CCN1CCCCC1)(c1ccccc1)C1C[C@@H]2C=C[C@H]1C2` (stereo partly drawn), the Potency was inconclusive: 25.9 µM [activator, single point].
In the case of `Cc1cc(C)nc(NS(=O)(=O)c2ccc(N/C=C/C(=O)c3ccc(Cl)c(Cl)c3)cc2)n1`, the Potency is reported as inconclusive: 6.51 µM [activator, partial curve, poor fit].
For `CCOC(=O)C1C(c2cccc(F)c2)NC(=S)NC1(O)C(F)(F)F` (stereo not drawn), the Potency was inconclusive: 29.1 µM [activator, single point].
With `CC(C)c1ccc(NC(=O)C2CCN(c3ncnc4c3nc3n4CCCCC3)CC2)cc1` the Potency was inconclusive: 18.4 µM [activator, single point].
With `CCCCN(CC)S(=O)(=O)c1ccc(C(=O)N=c2sc3cc(NC(C)=O)ccc3n2C)cc1` the Potency was active: 7.31 µM.
With `O=C(N/N=C/c1cnc(N2CCCCC2)s1)c1ccc(C(F)(F)F)cc1` the Potency was inconclusive: 18.4 µM [activator, single point].
For `Cc1ccc(-c2cc(C(=O)N3CCN(c4ncccn4)CC3)c3ccccc3n2)cc1`, the Potency was “inactive”.
With `Cc1ccc(S(=O)(=O)NC(C)(C)CN2CCNCC2)cc1` the Potency was active: 20.6 µM.
For `NC(=O)c1ccsc1NC(=O)COC(=O)Cc1c[nH]c2ccccc12`, the Potency was “inactive”.
In the case of `Cc1cccc(C)c1N=Nc1c(C)cc(O)cc1C`, the Potency is reported as inconclusive: 29.1 µM [activator, partial curve, poor fit].
For `O=C1OCC2=C1C(c1ccc(F)cc1)c1cc3c(cc1N2)OCO3` (stereo not drawn), the Potency was active: 0.164 µM.
With `C[C@@H]1C(=O)O[C@@H]2[C@H](O)C34[C@H]5C[C@@H](C(C)(C)C)C36[C@H](OC(=O)[C@@H]6O)OC4(C(=O)O5)[C@@]12O` (stereo partly drawn) the Potency was inconclusive: 0.092 µM [activator, full curve, poor fit].
For `COC(=O)COc1cccc2c(=O)n(CC(=O)NCCc3ccc(OC)c(OC)c3)ccc12`, the Potency was “inactive”.
With `Cc1cccc(-n2c(O)c(C=Nc3ccccc3-c3n[nH]c(=S)[nH]c3=O)c3ccccc3c2=O)n1` the Potency was inconclusive: 29.1 µM [activator, single point].
With `COc1ccccc1N1CCN(C2=Nc3cccc4cccc2c34)CC1` the Potency was inconclusive: 29.1 µM [activator, single point].
For `COc1ccc(-c2nc(N/N=C(\C)c3ccc(O)cc3)c3ccccc3n2)cc1`, the Potency was inconclusive: 16.4 µM [activator, single point].
With `CC(C)CN1CCC(=O)N([C@H](COc2ccccc2)Cc2ccccc2)CC1` the Potency was inconclusive: 3.66 µM [activator, partial curve, poor fit].
For `Cc1cc(C)n2nc(SCC(=O)Nc3ccc(O)cc3)nc2n1`, the Potency was “inactive”.
For `CCc1ccccc1NC(=S)NCc1ccc2c(c1)OCO2`, the Potency was inconclusive: 29.1 µM [activator, single point].
In the case of `CCOC(=O)Nc1ccc(N2CCOCC2)c(S(=O)(=O)Nc2ccc(Cl)cc2)c1`, the Potency is reported as active: 20.6 µM.
With `Cc1cc(C)n(CC(=O)NNC(=O)COc2ccc(Cl)cc2Cl)n1` the Potency was “inactive”.
In the case of `Cc1ccc(C(C)C)c(OCCNC(=S)Nc2cccc3ccccc23)c1`, the Potency is reported as active: 5.62 µM.
For `CCOC(=O)c1sc(NC(=O)CCSC)nc1C`, the Potency was inconclusive: 18.4 µM [activator, partial curve, poor fit].
For `Cc1cccc2c(N=O)c(O)[nH]c12`, the Potency was inconclusive: 18.4 µM [activator, single point].
In the case of `COCCCNCC(=O)Nc1ccc(OC(F)(F)F)cc1`, the Potency is reported as inconclusive: 14.6 µM [activator, partial curve, poor fit].
For `CN(C)/N=C/C=C1\CCC/C(=C/c2cccs2)C1=O`, the Potency was inconclusive: 18.4 µM [activator, single point].
For `COc1ccc(-c2nnn3c2nc(NCc2ccccc2)c2ccccc23)cc1`, the Potency was inconclusive: 4.11 µM [activator, full curve, poor fit].
With `CCN(CC)CC(O)c1ccc2ccc3ccc(O)cc3c2c1` (stereo not drawn) the Potency was inconclusive: 29.1 µM [activator, single point].
In the case of `c1ccc2sc(Nc3nc4cc5c(cc4s3)OCO5)nc2c1`, the Potency is reported as inconclusive: 2.06 µM [activator, full curve].
For `Cc1oc(-c2ccccc2Cl)nc1CS(=O)CC(=O)NCc1ccco1` (stereo not drawn), the Potency was inconclusive: 2.06 µM [activator, single point].
With `COc1ccc(C2=CC(c3cc(OC)c(OC)c(OC)c3)NC(=S)N2)cc1` (stereo not drawn) the Potency was active: 18.4 µM.
For `CC(C)(c1ccccc1)c1ccc(OCCN2CCCC2)cc1`, the Potency was inconclusive: 18.4 µM [activator, single point].
In the case of `Cc1ccc(C(=O)N/C(=C\c2ccccc2F)c2nc(=S)[nH][nH]2)cc1`, the Potency is reported as inconclusive: 29.1 µM [activator, single point].
For `O=C(O)c1cc(O)c2c(c1)[C@H]([C@H]1c3cc(C(=O)O)cc(O)c3C(=O)c3c(O[C@@H]4OC(CO)C(O)C(O)C4O)cccc31)c1cccc(O[C@@H]3OC(CO)C(O)C(O)C3O)c1C2=O` (stereo partly drawn), the Potency was “inactive”.
For `CCOC(=O)c1cc2c(=O)n3ccccc3nc2n(CCOC)c1=NC(=O)C(C)(C)C`, the Potency was inconclusive: 6.51 µM [activator, full curve, poor fit].

Reference: PubChem BioAssay AID624297 (National Center for Advancing Translational Sciences (NCATS), 2012)
Potency means the concentration at half of the fitted maximal effect.
